Laboratory results as given in patent US20040109864A1.
Results are given in words; binding and its absence hold for the method and conditions named. Some binding calls cover weakened binding; strength is not graded here.

Chains of the proteins cited; added tags and fusions are not shown. Lines headed by an entry give the natural chain unless they say otherwise; changes in a name come on top. Residues count along the entry.
UniProt P04272, residues 2-339: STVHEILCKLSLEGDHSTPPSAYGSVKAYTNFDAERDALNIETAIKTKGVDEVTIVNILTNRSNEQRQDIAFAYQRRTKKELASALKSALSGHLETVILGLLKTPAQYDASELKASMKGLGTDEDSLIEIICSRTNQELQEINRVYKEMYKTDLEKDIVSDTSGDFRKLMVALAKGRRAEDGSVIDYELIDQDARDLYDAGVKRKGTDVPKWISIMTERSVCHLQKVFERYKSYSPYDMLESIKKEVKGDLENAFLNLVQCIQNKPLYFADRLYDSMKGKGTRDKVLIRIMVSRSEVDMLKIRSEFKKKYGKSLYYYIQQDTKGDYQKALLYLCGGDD
UniProt P00747: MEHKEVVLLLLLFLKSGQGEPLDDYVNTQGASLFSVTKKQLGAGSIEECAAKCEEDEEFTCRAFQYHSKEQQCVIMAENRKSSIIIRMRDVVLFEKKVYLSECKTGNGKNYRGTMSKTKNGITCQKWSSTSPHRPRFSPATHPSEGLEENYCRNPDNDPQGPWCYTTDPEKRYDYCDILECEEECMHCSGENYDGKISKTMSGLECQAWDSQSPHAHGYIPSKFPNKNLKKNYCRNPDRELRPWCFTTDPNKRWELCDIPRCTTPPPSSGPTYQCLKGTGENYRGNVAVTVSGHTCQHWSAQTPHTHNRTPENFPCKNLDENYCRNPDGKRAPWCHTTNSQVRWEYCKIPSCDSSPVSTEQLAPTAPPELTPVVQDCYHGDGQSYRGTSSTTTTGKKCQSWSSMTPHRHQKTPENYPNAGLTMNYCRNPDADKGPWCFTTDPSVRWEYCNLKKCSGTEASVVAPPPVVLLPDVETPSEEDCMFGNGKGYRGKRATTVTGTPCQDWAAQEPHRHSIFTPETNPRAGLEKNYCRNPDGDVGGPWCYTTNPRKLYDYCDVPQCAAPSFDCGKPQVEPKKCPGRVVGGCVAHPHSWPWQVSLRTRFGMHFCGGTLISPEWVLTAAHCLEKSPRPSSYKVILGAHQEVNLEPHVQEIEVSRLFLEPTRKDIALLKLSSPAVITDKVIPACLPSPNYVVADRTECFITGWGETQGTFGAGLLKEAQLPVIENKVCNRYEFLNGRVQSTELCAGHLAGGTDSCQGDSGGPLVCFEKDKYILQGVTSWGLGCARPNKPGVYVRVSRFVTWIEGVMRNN

Columns and labels:
[1] = target: annexin II, 35 kDa angiostatin binding protein purified from bovine aortic endothelial cells (bovine) (UniProt P04272); assay: radioligand binding to annexin II on Protein A Sepharose gel
[2] = target: annexin II, 35 kDa angiostatin binding protein purified from bovine aortic endothelial cells (bovine) (UniProt P04272); assay: solid phase radioligand binding, annexin II coated on plates
[3] = target: annexin II, 35 kDa angiostatin binding protein purified from bovine aortic endothelial cells (bovine) (UniProt P04272); assay: ligand blot of purified 35 kDa fractions, angiostatin 1 ug/ml

binding [1] | binding [2] | binding [3] | Substance
binds |  |  | plasminogen (from UniProt P00747 20-810) (ligand)
binds | binds | binds | angiostatin (38 kDa kringle 1-4 fragment of human plasminogen, made by limited digestion with bovine pancreatic elastase) (from UniProt P00747 99-459) (ligand)
